Source: publication PMC9570369
Results are given in words; binding and its absence hold for the method and conditions named. Binding seen in cells or lysates may run through a third protein. Some binding calls cover weakened binding; strength is not graded here. Where a sequence is shown, tags or fusion partners need not be part of it.

Target: T1, Flag-tagged human melanoma differentiation-associated gene 5 (MDA5) (human) (UniProt Q9BYX4)
T1 sequence: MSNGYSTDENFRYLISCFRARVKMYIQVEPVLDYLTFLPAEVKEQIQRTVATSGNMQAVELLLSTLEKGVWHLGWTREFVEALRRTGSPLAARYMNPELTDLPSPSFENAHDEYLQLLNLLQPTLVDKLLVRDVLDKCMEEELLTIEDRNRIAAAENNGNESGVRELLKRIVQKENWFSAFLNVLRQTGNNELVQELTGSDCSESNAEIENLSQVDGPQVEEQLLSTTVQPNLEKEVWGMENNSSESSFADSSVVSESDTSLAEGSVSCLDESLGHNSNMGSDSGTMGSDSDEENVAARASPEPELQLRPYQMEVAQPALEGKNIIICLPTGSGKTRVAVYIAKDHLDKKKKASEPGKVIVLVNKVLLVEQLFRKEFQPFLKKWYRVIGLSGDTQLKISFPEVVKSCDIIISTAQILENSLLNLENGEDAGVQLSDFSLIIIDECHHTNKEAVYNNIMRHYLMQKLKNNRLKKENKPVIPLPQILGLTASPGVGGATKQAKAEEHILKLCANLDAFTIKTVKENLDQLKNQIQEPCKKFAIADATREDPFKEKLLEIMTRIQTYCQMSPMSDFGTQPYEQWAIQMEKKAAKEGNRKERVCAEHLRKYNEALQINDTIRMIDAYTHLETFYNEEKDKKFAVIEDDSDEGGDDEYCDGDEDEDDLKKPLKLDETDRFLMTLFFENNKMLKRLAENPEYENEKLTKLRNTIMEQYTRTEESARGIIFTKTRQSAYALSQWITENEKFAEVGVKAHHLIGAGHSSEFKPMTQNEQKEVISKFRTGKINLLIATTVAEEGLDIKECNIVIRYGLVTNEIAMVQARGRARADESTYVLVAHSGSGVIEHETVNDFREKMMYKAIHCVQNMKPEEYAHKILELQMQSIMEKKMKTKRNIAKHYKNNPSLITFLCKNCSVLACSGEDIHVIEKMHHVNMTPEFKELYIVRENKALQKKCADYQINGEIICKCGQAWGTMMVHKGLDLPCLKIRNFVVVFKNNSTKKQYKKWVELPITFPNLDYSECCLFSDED
Test: co-IP

Q: For “Hibit-tagged full-length SARS-CoV-2 nonstructural protein 3 (nsp3) (from UniProt P0DTD1)”, which binding is on record?
A: Its binding is “binds”.
